Experimental data: the supplement of paper PMC10849652
The list shows a part of the results.

Sequences of proteins named here, by UniProt entry; tags and fusion partners are left off. A change or cut given only in a name is not applied to a line headed by its entry.
UniProt O15360: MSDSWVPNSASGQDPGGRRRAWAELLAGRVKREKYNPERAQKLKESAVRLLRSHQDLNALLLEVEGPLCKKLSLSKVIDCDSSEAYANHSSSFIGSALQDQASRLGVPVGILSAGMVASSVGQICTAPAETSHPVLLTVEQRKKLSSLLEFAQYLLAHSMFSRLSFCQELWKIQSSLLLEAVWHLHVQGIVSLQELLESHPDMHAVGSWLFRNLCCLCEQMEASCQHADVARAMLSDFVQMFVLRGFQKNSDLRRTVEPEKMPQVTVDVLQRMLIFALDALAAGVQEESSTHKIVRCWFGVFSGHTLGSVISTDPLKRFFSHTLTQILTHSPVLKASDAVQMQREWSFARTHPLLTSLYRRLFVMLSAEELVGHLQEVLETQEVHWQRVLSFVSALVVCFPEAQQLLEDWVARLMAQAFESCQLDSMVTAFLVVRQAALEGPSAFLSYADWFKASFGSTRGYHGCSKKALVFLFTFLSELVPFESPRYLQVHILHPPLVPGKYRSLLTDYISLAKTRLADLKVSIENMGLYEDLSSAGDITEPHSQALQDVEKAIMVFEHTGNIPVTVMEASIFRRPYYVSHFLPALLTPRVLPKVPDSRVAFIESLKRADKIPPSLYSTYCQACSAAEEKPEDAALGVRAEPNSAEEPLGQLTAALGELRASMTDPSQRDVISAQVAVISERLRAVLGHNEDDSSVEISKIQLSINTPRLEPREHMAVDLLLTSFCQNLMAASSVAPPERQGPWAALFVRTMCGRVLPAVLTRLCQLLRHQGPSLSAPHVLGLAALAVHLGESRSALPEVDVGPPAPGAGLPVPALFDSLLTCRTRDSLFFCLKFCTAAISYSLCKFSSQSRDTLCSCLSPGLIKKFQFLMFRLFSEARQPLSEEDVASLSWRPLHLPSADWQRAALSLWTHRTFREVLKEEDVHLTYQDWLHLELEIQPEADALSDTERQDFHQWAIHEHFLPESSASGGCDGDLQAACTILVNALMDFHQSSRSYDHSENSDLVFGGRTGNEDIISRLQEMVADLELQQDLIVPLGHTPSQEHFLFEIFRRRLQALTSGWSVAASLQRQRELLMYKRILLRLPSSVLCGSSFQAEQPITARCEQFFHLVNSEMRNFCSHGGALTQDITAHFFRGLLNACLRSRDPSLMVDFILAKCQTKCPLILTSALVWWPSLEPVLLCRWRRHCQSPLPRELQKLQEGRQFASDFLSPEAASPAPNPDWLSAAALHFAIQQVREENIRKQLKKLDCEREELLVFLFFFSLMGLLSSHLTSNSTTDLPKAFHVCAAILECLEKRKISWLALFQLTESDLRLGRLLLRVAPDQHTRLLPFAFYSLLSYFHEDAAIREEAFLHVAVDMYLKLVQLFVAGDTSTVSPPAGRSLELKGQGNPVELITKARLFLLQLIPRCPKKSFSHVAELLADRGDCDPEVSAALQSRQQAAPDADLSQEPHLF
UniProt Q8N3Y1: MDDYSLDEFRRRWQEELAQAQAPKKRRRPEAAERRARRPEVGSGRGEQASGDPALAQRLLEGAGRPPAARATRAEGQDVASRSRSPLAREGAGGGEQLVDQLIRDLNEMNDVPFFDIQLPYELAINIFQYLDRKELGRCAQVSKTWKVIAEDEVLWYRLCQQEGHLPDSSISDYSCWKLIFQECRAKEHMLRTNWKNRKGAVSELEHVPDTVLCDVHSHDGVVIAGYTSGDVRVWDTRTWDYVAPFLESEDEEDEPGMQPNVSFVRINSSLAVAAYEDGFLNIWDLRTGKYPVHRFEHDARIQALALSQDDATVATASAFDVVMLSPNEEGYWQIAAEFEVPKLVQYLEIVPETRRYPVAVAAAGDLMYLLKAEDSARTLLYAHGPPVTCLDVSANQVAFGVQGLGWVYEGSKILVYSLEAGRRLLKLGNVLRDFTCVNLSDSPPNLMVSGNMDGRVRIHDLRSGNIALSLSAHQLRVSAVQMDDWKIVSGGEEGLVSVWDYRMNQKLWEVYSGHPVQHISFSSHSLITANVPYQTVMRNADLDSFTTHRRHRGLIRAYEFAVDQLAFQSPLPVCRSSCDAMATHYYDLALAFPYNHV
UniProt P35916, whole entry, looked up: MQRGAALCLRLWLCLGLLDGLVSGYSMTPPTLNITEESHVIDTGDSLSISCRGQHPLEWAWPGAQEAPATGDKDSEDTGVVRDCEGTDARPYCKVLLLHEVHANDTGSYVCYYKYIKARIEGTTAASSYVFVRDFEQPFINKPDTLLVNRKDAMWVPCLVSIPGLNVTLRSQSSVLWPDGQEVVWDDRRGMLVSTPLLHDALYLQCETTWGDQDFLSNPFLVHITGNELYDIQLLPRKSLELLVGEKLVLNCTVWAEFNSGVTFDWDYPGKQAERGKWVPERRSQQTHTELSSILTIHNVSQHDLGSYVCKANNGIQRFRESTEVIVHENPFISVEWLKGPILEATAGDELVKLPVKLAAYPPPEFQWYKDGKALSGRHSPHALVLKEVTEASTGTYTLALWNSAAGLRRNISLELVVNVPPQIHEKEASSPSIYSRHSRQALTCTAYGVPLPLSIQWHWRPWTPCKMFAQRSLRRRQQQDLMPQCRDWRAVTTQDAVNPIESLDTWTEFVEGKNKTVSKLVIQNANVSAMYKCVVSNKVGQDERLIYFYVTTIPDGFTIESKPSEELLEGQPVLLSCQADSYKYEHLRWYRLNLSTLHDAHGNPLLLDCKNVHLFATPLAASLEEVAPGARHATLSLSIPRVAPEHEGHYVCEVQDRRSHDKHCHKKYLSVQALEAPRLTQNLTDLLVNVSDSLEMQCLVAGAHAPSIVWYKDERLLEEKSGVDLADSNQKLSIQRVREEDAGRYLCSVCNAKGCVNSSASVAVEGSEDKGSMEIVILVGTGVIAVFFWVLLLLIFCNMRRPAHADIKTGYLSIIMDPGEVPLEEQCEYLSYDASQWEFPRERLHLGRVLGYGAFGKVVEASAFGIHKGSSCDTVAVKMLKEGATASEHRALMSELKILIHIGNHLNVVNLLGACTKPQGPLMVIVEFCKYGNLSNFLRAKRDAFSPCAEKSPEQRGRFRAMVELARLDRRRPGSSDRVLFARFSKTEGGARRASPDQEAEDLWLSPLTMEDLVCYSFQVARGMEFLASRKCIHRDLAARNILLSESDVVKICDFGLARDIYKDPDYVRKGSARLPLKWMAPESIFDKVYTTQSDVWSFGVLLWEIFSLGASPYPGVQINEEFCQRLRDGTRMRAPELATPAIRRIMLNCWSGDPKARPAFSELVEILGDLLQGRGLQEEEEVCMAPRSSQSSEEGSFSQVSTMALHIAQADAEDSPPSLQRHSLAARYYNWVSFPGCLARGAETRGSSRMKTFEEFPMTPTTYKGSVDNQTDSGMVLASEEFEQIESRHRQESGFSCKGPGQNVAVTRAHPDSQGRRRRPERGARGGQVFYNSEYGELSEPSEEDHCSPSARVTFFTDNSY
UniProt B1AJZ9: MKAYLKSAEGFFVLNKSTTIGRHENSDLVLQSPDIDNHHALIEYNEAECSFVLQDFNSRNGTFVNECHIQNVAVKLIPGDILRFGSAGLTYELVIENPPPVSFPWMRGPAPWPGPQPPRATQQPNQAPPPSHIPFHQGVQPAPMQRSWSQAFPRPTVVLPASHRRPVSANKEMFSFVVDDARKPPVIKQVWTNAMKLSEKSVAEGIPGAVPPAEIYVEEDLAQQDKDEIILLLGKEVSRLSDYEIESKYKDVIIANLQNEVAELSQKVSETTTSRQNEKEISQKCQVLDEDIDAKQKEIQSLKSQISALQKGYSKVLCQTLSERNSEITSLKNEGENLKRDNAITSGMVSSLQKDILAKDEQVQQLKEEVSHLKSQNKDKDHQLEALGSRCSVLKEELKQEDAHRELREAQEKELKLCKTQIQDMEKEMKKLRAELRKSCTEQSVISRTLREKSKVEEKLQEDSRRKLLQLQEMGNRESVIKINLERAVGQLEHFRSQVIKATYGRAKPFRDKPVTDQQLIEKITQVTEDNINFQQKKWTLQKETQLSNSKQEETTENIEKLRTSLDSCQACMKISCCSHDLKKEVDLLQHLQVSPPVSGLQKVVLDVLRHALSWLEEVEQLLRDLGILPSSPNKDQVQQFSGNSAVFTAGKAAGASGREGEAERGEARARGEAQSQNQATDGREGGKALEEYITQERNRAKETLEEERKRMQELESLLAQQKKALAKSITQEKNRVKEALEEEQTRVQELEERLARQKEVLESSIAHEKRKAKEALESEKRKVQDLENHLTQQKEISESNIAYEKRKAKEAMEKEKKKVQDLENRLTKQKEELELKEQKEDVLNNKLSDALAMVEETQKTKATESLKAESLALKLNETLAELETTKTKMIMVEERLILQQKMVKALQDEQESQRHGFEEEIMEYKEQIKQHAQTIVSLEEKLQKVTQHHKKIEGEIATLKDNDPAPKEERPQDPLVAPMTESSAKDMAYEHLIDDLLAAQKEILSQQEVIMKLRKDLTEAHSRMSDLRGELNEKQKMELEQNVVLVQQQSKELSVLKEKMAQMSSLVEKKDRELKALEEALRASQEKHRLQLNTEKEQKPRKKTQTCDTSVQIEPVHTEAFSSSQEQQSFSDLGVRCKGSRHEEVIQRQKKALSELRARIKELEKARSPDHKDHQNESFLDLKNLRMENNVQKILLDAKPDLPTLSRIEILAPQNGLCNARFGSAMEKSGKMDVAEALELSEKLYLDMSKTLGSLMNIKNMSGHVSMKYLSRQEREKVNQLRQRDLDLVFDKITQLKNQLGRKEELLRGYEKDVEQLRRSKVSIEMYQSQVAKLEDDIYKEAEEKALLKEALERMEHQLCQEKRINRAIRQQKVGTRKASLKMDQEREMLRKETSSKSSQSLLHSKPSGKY
UniProt Q9H4M3: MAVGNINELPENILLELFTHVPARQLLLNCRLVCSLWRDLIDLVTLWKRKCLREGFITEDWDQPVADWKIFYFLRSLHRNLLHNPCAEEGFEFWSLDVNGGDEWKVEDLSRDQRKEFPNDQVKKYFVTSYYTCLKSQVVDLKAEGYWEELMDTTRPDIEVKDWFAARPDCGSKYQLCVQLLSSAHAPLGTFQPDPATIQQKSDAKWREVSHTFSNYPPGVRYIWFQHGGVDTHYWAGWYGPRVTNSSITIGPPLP

How the values were obtained:
Test in all cases: log2 fold change, soluble protein after heating vs DMSO (PISA); higher = thermal stabilisation; K562 lysate, 10 uM; active = over 0.2 and 3.5 SD of the protein, either way, in both replicates (recomputed)
vemurafenib = compound: CCCS(=O)(=O)Nc1ccc(F)c(C(=O)c2c[nH]c3ncc(-c4ccc(Cl)cc4)cc23)c1F [vemurafenib]
Summary of the method: (§1)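 Pellets of K562 cells were dounce-homogenised in PBS pH 7.4 with 1 mM MgCl2, and the crude extract was held at 1 mg/mL protein for a 30 min treatment with 10 μM compound. Aliquots were heated for 3 min over 48°C-58°C and pooled before NP-40 was added to 0.5% at 4°C. The supernatant from 21,000xg for 90 min was quantified by TMTpro 16plex LC-MS/MS with channel sums equalised. Values are reported from duplicates as log-two fold change in thermal stability relative to solvent controls.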

[1] = compound: CC[C@@H]1C(=O)N(C)c2cnc(Nc3ccc(C(=O)NC4CCN(C)CC4)cc3OC)nc2N1C1CCCC1
Summary of the method: as §1

saracatinib = compound: CN1CCN(CCOc2cc(OC3CCOCC3)c3c(Nc4c(Cl)ccc5c4OCO5)ncnc3c2)CC1 [saracatinib]
Summary of the method: as §1

sotrastaurin = compound: CN1CCN(c2nc(C3=C(c4c[nH]c5ccccc45)C(=O)NC3=O)c3ccccc3n2)CC1 [sotrastaurin]
Summary of the method: as §1

defactinib = compound: CNC(=O)c1ccc(Nc2ncc(C(F)(F)F)c(NCc3nccnc3N(C)S(C)(=O)=O)n2)cc1 [defactinib]
Summary of the method: as §1

[2] = compound: CNc1nc(-c2ccc3c(N)n[nH]c3c2)cc(N2C[C@@H](C(=O)NC3CCCCC3)CC[C@H]2C)n1
Summary of the method: as §1

encorafenib = compound: COC(=O)N[C@@H](C)CNc1nccc(-c2cn(C(C)C)nc2-c2cc(Cl)cc(NS(C)(=O)=O)c2F)n1 [encorafenib]
Summary of the method: as §1

[3] = compound: COC(=O)[C@H](CCSC)NC(=O)C1=C(C=C(C=C1)NC[C@H](CS)N)C2=CC=CC=C2
Summary of the method: as §1

[4] = compound: CCCS(=O)(=O)Nc1ccc(F)c(C(=O)c2c[nH]c3ncc(Cl)cc23)c1F
Summary of the method: as §1

barasertib = compound: CCN(CCCOc1ccc2c(Nc3cc(CC(=O)Nc4cccc(F)c4)[nH]n3)ncnc2c1)CCOP(=O)(O)O [barasertib]
Summary of the method: as §1

volasertib = compound: CC[C@@H]1C(=O)N(C)c2cnc(Nc3ccc(C(=O)N[C@H]4CC[C@H](N5CCN(CC6CC6)CC5)CC4)cc3OC)nc2N1C(C)C [volasertib]
Summary of the method: as §1

[5] = compound: CCn1c(C(=O)N(C2CC2)C2CC2)cc2c3c(ncn3C)c(Nc3cc(C)n(C)n3)nc21
Summary of the method: as §1

Tubastatin A = compound: CN1CCc2c(c3ccccc3n2Cc2ccc(C(=O)NO)cc2)C1 [Tubastatin A]
Summary of the method: as §1

[6] = compound: CNC(=O)C1=CC=CC=C1NC2=NC(=NC=C2Cl)NC3=C(C=C(C=C3)N4CCOCC4)OC
Summary of the method: as §1

alisertib = compound: COc1cc(Nc2ncc3c(n2)-c2ccc(Cl)cc2C(c2c(F)cccc2OC)=NC3)ccc1C(=O)O [alisertib]
Summary of the method: as §1

[7] = compound: COc1cc2nc(-c3cc(F)ccc3O)nc(N[C@@H]3CNC[C@H]3C(C)(C)O)c2cc1OC
Summary of the method: as §1

gefitinib = compound: COc1cc2ncnc(Nc3ccc(F)c(Cl)c3)c2cc1OCCCN1CCOCC1 [gefitinib]
Summary of the method: as §1

[8] = compound: CCn1cc(-c2ccnc3[nH]c(-c4cccc(CN(C)C)c4)cc23)c(-c2ccc(NC(=O)N(C)C)cc2)n1
Summary of the method: as §1

[9] = compound: CN1CCC(CNc2ccc3ncc(-c4cccc(OC(F)(F)F)c4)n3n2)CC1
Summary of the method: as §1

alvocidib = compound: CN1CC[C@H](c2c(O)cc(O)c3c(=O)cc(-c4ccccc4Cl)oc23)[C@H](O)C1 [alvocidib]
Summary of the method: as §1

Measured: log2 fold change

FANCA (UniProt O15360)
inactive: vemurafenib -0.018 | [1] -0.099 | saracatinib -0.039 | sotrastaurin 0.176 | defactinib 0.143 | [2] 0.133 | encorafenib -0.041 | [3] 0.157

FBXW8 (UniProt Q8N3Y1)
inactive: vemurafenib -0.052 | [4] 0.015 | barasertib -0.031 | [1] 0.201 | volasertib -0.144 | [5] 0.068 | Tubastatin A 0.232 | [6] -0.119 | defactinib -0.258 | encorafenib -0.07 | [3] 0.016 | alisertib 0.103 | [7] -0.036 | gefitinib -0.384

FLT4 (UniProt P35916)
inactive: vemurafenib -0.069 | [4] -0.046 | barasertib -0.036 | [1] -0.031 | volasertib -0.042 | [5] 0.135 | [8] 0.018 | [9] 0.08 | saracatinib -0.036 | alvocidib -0.086 | Tubastatin A -0.001 | defactinib 0.004 | [2] -0.081 | encorafenib -0.129 | [3] 0.053 | [7] 0.031
active: [6] -0.428

Taken from above (2 entries):
FBXW8 (UniProt Q8N3Y1)
inactive: vemurafenib -0.052 | [4] 0.015 | barasertib -0.031 | [1] 0.201 | volasertib -0.144 | [5] 0.068 | Tubastatin A 0.232 | [6] -0.119 | defactinib -0.258 | encorafenib -0.07 | [3] 0.016 | alisertib 0.103 | [7] -0.036 | gefitinib -0.384

FLT4 (UniProt P35916)
inactive: vemurafenib -0.069 | [4] -0.046 | barasertib -0.036 | [1] -0.031 | volasertib -0.042 | [5] 0.135 | [8] 0.018 | [9] 0.08 | saracatinib -0.036 | alvocidib -0.086 | Tubastatin A -0.001 | defactinib 0.004 | [2] -0.081 | encorafenib -0.129 | [3] 0.053 | [7] 0.031
active: [6] -0.428

The list continues:

FHAD1 isoform 3 (UniProt B1AJZ9)
inactive: vemurafenib 0.266 | [4] 0.06 | [1] 0.408 | volasertib 0.038 | [5] -0.252 | saracatinib 0.066 | Tubastatin A 0.192 | [6] -0.017 | defactinib -0.112 | [2] 0.118 | encorafenib -0.142 | [3] 0.019 | [7] 0.153

FBXO44 isoform 2 (UniProt Q9H4M3)
inactive: vemurafenib 0.14 | [4] 0.066 | barasertib 0.054 | volasertib 0.003 | [5] -0.066 | [8] -0.031 | [9] 0.034 | saracatinib 0.215 | alvocidib -0.03 | Tubastatin A 0.046 | [6] -0.106 | defactinib 0.024 | [2] 0.059 | alisertib 0.38 | [7] -0.069 | gefitinib 0.086

FBRS (UniProt J3KNZ9)
inactive: vemurafenib -0.001 | barasertib 0.018 | [1] 0.077 | [5] 0.042 | [8] 0.073 | [9] 0.098 | saracatinib 0.026 | sotrastaurin 0.098 | alvocidib -0.081 | Tubastatin A -0.009 | [6] 0.073 | defactinib -0.029 | [2] -0.027 | encorafenib -0.04 | [3] 0.009 | alisertib -0.078 | gefitinib 0.084
